Values from PubChem BioAssay AID1259254 (NCATS, 2017).
In all, the deposit lists about 59,000 reagents; this is an unselected part. About 1,550 of them (2.6%) count as active. 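G2 share is only a proxy for re-replication; each gene was hit by three separate siRNAs, and active genes were retested.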 Unmarked entries are inactive. Reagents against one gene are numbered here. Further read-outs or replicates are left out here. Not stated in the record: the amount of reagent.

Assay: 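Gene knock-downs that lead to re-replication, shown by excess G2 DNA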 (primary screen)
System: human HCT116 colorectal cancer cells
Reagents: single siRNA against human genes
Time to read-out: 3 days
Detection: 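Imaged Hoechst DNA stain sorts each cell into a cycle phase by DNA amount; per plate, G2 fraction set to 0% for non-targeting and 100% for GMNN siRNA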
Reading the numbers: G2 robust z-score: higher = more G2 cells, more excess DNA replication
Call rule: 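An siRNA counts as active if its G2 robust z-score lies at least 5 MADs above the screen median; here such calls match roughly 38% of GMNN control or more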

What is on record for EPHA6 (GeneID 285220) #1?
G2 robust z-score: -0.84

With EPHA6 (GeneID 285220) #2, how do the results read?
G2 robust z-score: -0.454

What did the screen give for EPHA6 (GeneID 285220) #3?
G2 robust z-score: 0.0726

Which result is listed for SLC16A9 (GeneID 220963) #1?
G2 robust z-score: -0.346

With SLC16A9 (GeneID 220963) #2, what does the deposit list?
G2 robust z-score: -0.218

For SLC16A9 (GeneID 220963) #3, how do the results read?
G2 robust z-score: 0.0248

Entries above whose gene name starts with S or s (3):
SLC16A9 (GeneID 220963) #1: G2 robust z-score = -0.346
SLC16A9 (GeneID 220963) #2: G2 robust z-score = -0.218
SLC16A9 (GeneID 220963) #3: G2 robust z-score = 0.0248

Additional records follow.
For TRAPPC12 (GeneID 51112) #1, how do the results read?
G2 robust z-score: -1.48

For TRAPPC12 (GeneID 51112) #2, what does the deposit list?
G2 robust z-score: 0.459

Which result is listed for TRAPPC12 (GeneID 51112) #3?
G2 robust z-score: -0.53

Which result is listed for ZNF233 (GeneID 353355) #1?
G2 robust z-score: 5.22 (active)

With ZNF233 (GeneID 353355) #2, what does the deposit list?
G2 robust z-score: 3.3

What did the screen give for ZNF233 (GeneID 353355) #3?
G2 robust z-score: 0.372
